Here are results for 63 molecules from PubChem BioAssay AID493014 (National Center for Advancing Translational Sciences (NCATS), 2011).

The assay can be described thus: qHTS Assay to Find Inhibitors of Chronic Active B-Cell Receptor Signaling. The conditions noted are these: ABC-DLBCL IkBa-CBG/CBR reporter, luminescence ratio (green luciferase fused to IkBa over red control in TMD8 lymphoma cells), 4 h. In outline:
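Doxycycline induced both beetle luciferases in TMD8 lymphoma cells; IKK-driven degradation limits the IkappaBalpha-fused green signal, while red luminescence normalises for cell number and nonspecific effects. Compounds tested up to 46 uM, 4 hrs.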
In general terms: Quantitative high-throughput screening tests each substance at several concentrations.

Setting [1] is: measured here: CBR red luminescence, cell number.
[2] abbreviates: measured here: IkBa-CBG green luminescence.

The other results are listed elsewhere or left out. The main result of the screen is listed elsewhere. These columns were measured beside it and carry no call. Most of these compounds were active or inconclusive in the main read-out, so they are no random draw. Potencies come from curve fits of mixed quality, noted in brackets.

As a reminder, the AC50 is the concentration giving half of the maximal activity seen. Turning to `COc1cc2nc(SCC(=O)NCCc3ccccc3)n(Cc3ccco3)c(=O)c2cc1OC`, under setting [1], the AC50 was 0.231 µM [falling, partial curve, poor fit]. Still for that read-out and setting: to `O=C(NC1CCCC1)C(c1ccncc1)N(C(=O)c1csnn1)c1ccccc1F` (centres undefined) belongs 35.5 µM [falling, single point]. As for `Nc1nsc2ccccc12`, the AC50 under setting [1] was 25.9 µM [falling, single point]. Same read-out and setting: to `CC(C)Cn1c(N)c(C(=O)COC(=O)c2cc(C(F)(F)F)nc3c(C(F)(F)F)cccc23)c(=O)n(C)c1=O` belongs 7.31 µM [rising, partial curve, poor fit]. As for `CCCCC(=O)Nc1ccc(Br)cc1C(=O)O`, the AC50 runs as follows: under setting [1], 2.31 µM [falling, full curve]; under setting [2], 29.1 µM [rising, partial curve, poor fit]. Turning to `CC(Oc1ccccc1)C(=O)OCC(=O)NC(=O)NC1CCCCC1` (centres undefined), the concentration at half-maximal activity (AC50) under setting [1] is 0.206 µM [rising, full curve, poor fit].

Take `C/C(=N\NC(=O)c1ccc(N2CCCC2=O)cc1)c1ccncc1`: under setting [1], the AC50 is 0.447 µM [rising, full curve, poor fit].

Take `COc1ccc(-c2nc(C#N)c(N3CCN(c4ccccc4)CC3)o2)cc1`: under setting [1], the AC50 was 5.8 µM [falling, single point].

`Clc1ccccc1OCc1nnc(-c2ccccc2Br)o1`: the half-maximal activity concentration (AC50) under setting [1] was 6.31 µM [rising, single point]. As for `CNC(=O)CC1C(=O)N(c2ccc(F)cc2)C(=S)N1NC(=O)c1ccc(Br)cc1` (centres undefined), the AC50 under setting [1] was 35.5 µM [falling, partial curve, poor fit]. Same read-out and setting: to `COc1cccc(CNC(=O)CNC(=S)N(Cc2ccccc2)Cc2ccccc2F)c1` belongs 17.8 µM [falling, single point]; to `O=C(c1cnn(-c2ccccc2)c1)c1ccccc1O`, 13 µM [falling, partial curve]; to `Cc1nnc(SCC(=O)N2CCN(c3ccccc3F)CC2)n1C1CC1`, 23.1 µM [rising, single point]. On the same count and under the same terms, as for `C/C(=N\NC(=S)NCc1ccccc1)c1ccc(Br)cc1`, the figure is 5.62 µM [rising, single point]; as for `Cc1ccc(CN2CCN(Cc3ccc4cc(F)ccc4n3)CC2CCO)o1` (centres undefined), 5.62 µM [rising, single point]; as for `CC(/C=C/c1ccc2c(c1)OCO2)=N/NC(=O)c1cccnc1`, 20.6 µM [falling, partial curve, poor fit]. Still for that read-out and setting: to `CCOc1cc(-c2nc(-c3ccccc3OC)no2)cc(OCC)c1OCC` belongs 29.1 µM [rising, partial curve, poor fit]; to `COc1ccccc1CCC(=O)OCC(=O)Nc1ccc(S(N)(=O)=O)cc1`, 11.2 µM [rising, partial curve]; to `Cc1ccc(OCCSc2nc(N)cc(N)n2)cc1`, 1.78 µM [rising, full curve, poor fit]. On to `CC(C)(C)c1ccc(NC(=O)c2c(F)cccc2Cl)cc1`, for which the AC50 under setting [1] was 5.62 µM [falling, partial curve, poor fit].

Regarding `CCOC(=O)C1CCCN(C(=O)c2ccccc2Oc2ccccc2)C1` (centres undefined), the AC50 under setting [1] is 35.5 µM [rising, single point].

`Cc1ccc(OCCCC(=O)Nc2ccc3c(c2)OCCO3)cc1`: the AC50 under setting [1] is 6.51 µM [falling, single point]. `COc1ccccc1NC(=O)Cc1nnc(SCC(=O)Nc2ccc(F)cc2F)n1C`: the AC50 under setting [1] is 35.5 µM [falling, single point]. Still for that read-out and setting: to `CCc1cc(/C(Cc2ccc3ccccc3n2)=N\O)c(O)cc1O` belongs 12.6 µM [falling, single point]; to `COc1cccc(C2CC(c3ccccc3)=NN2S(=O)(=O)c2ccc(C)cc2)c1OC` (centres undefined), 8.91 µM [rising, partial curve, poor fit]. On the same count and under the same terms, as for `CCOC(=O)C1=C(C)n2c(s/c(=C3\C(=O)Nc4ccccc43)c2=O)=NC1c1ccc(OC)cc1` (centres undefined), the figure is 13 µM [falling, single point]; as for `CC(C(=O)NC1CCCC1)N(C(=O)Cn1nnc(-c2ccc(F)cc2)n1)c1ccccc1F` (centres undefined), 8.91 µM [falling, partial curve, poor fit]. Take `COc1cc(OC)cc(C(=O)N/N=C/c2ccc(OC)c(COc3ccc(F)cc3)c2)c1`: the AC50 under setting [2] was 11.2 µM [falling, single point]. Take `CC(=O)Nc1sc2c(c1C(c1ccccc1)N1CCOCC1)CCCC2` (centres undefined): under setting [1], the AC50 is 0.731 µM [falling, full curve, poor fit]. Same read-out and setting: as for `O=C(CSc1nnc(-c2ccccc2)o1)c1ccc2c(c1)OCCO2`, the figure is 3.55 µM [rising, single point]; as for `CCOC(=O)c1ccc(Nc2cc(C)nc(-c3ccccc3)n2)cc1`, 1.26 µM [falling, full curve]. `Oc1ccc(Br)cc1-c1ccn[nH]1`: the AC50 under setting [1] was 29.1 µM [rising, partial curve, poor fit]. Same read-out and setting: as for `O=C(Nc1cccc(S(=O)(=O)N2CCCCC2)c1)C1CC(=O)N(c2ccc3c(c2)OCCO3)C1` (centres undefined), the figure is 10 µM [falling, partial curve, poor fit]. Still for that read-out and setting: as for `COc1ccc(OCCOC(=O)c2ccc(-n3cnnn3)cc2)cc1`, the figure is 7.31 µM [falling, single point].

For the molecule `COc1ccc(OC)c(NC(=O)CSc2nnc(CNC(=O)COc3ccc(Cl)cc3)o2)c1`, the AC50 under setting [1] is 35.5 µM [falling, single point]. Same read-out and setting: as for `Cc1cc2nc(N3C(=O)CNC3=S)sc2cc1C`, the figure is 17.8 µM [falling, single point]; as for `COc1cc2cc(CN(Cc3cccnc3)C(=O)NCc3ccccc3)c(=O)[nH]c2cc1OC`, 0.58 µM [rising, partial curve, poor fit]. Still for that read-out and setting: as for `Cc1c(C(=O)Nc2cccc(S(=O)(=O)N3CCOCC3)c2)oc2ccc(Br)cc12`, the figure is 0.731 µM [rising, partial curve, poor fit].

For the molecule `O=c1cccccc1NN=C1CCCCCC1`, the AC50 under setting [1] was 0.631 µM [rising, partial curve, poor fit]. Regarding `CCN(CC)C(=O)c1[nH]cnc1C(=O)Nc1cccc(Cl)c1`, the half-maximal activity concentration (AC50) under setting [1] was 4.11 µM [rising, partial curve].

As to `Cc1nc(C)c(-c2ccc(SCC(=O)Nc3cccc(Cl)c3C)nn2)s1`, the AC50 under setting [1] was 20 µM [falling, partial curve, poor fit]. Still for that read-out and setting: as for `O=C1CCCC(=O)N1c1ccc(O)cc1`, the figure is 14.1 µM [rising, partial curve, poor fit]; as for `O=[N+]([O-])c1cccc(-c2nnc(C3CC3)o2)c1`, 35.5 µM [rising, single point]; as for `CCC(=O)NC(=S)N1CCN(c2ccc([N+](=O)[O-])cc2Cl)CC1`, 0.0891 µM [falling, full curve, poor fit]. With `Cc1ccc2nc(-c3cccc(NC(=O)c4ccco4)c3)[nH]c2c1`, the AC50 under setting [1] was 0.731 µM [falling, partial curve, poor fit]. Take `Cc1ccc2[nH]c(=O)c(CN(CCCN3CCOCC3)C(=O)Nc3ccc(Cl)cc3)cc2c1`: the AC50 under setting [1] is 10 µM [rising, partial curve].

In the case of `Clc1ccc(CSc2nnc(-c3cccnc3)n2Cc2ccco2)c(Cl)c1`, the AC50 under setting [1] is 35.5 µM [falling, partial curve, poor fit]. Still for that read-out and setting: to `Cc1cc(C)c(C)c(OCC(=O)O/N=C(\N)c2ccncc2)c1` belongs 0.126 µM [rising, full curve, poor fit]; to `CN(C)S(=O)(=O)Oc1ccc(C(=O)Nc2cccc(Cl)c2)cc1`, 12.6 µM [falling, partial curve]. On the same count and under the same terms, as for `Cc1ccc(OCC(=O)Nc2ccc(N3CCN(C(=O)c4ccco4)CC3)cc2)c(C)c1`, the figure is 35.5 µM [falling, partial curve, poor fit]; as for `O=C(Nc1cc(F)cc(F)c1)c1ccc(NCCCN2CCCCCC2)c([N+](=O)[O-])c1`, 22.4 µM [falling, partial curve, poor fit]. Consider `Cc1ccc(C(=O)N/N=C/c2c(O)ccc3ccccc23)cn1`, for which, under setting [1], the AC50 is 2.82 µM [falling, full curve, poor fit]. With `COc1cc(NC(=O)c2c(F)cccc2F)nc(OC)n1`, the AC50 under setting [1] is 10 µM [falling, partial curve, poor fit]. As for `CCOc1ccc(NCc2nnc(SCc3ccccc3Cl)n2-c2ccccc2)cc1`, the AC50 under setting [1] was 2.82 µM [falling, single point]. The same measure, in the same setting: to `CC1=C(C(=O)Nc2ccc(C)cc2C)C(c2cccc(Cl)c2)n2nc(C(=O)OC(C)C)nc2N1` (centres undefined) belongs 7.31 µM [rising, partial curve, poor fit]. Take `Cc1sc2nc(CN3CCOCC3)nc(Oc3ccc(NC(=O)c4ccco4)cc3)c2c1C`: under setting [1], the AC50 is 31.6 µM [falling, single point]. Consider `CCOc1ccccc1N1CCN(C2=C(NS(=O)(=O)c3cccs3)C(=O)c3ccccc3C2=O)CC1`, for which, under setting [1], the AC50 was 14.6 µM [rising, partial curve, poor fit].

With `O=c1[nH]c(SCC2CCCCO2)nc2ccccc12` (centres undefined), the concentration at half-maximal activity (AC50) under setting [1] was 11.2 µM [falling, partial curve, poor fit]. Still for that read-out and setting: as for `CC(C)CC(=O)NS(=O)(=O)c1ccc(NC(=O)c2ccco2)cc1`, the figure is 3.55 µM [rising, single point]; as for `C#CCNC(=O)C1=C[C@@H](c2ccc(C(F)(F)F)cc2)C[C@@H](OCCCCO)O1`, 3.16 µM [rising, partial curve, poor fit].

Take `CN(CC(=O)Nc1ccccc1Cl)C(=O)COC(=O)c1ccccc1[N+](=O)[O-]`: the AC50 under setting [1] is 9.2 µM [rising, partial curve].

With `Cc1cc(C(=O)CSc2nn3c(=O)c(C(C)(C)C)nnc3s2)c(C)n1C1CC1`, the AC50 under setting [1] was 35.5 µM [falling, single point]. Still for that read-out and setting: as for `Fc1ccccc1CSc1ncnc2c1oc1ccccc12`, the figure is 8.91 µM [rising, partial curve, poor fit].
